Data as given in the supplement of paper PMC10849652.
The other results are listed elsewhere or left out.

Protein sequences, listed by entry. Tags and fused reporters are not part of them. Lines headed by an entry give the natural chain unless they say otherwise; changes in a name come on top.
UniProt Q13889: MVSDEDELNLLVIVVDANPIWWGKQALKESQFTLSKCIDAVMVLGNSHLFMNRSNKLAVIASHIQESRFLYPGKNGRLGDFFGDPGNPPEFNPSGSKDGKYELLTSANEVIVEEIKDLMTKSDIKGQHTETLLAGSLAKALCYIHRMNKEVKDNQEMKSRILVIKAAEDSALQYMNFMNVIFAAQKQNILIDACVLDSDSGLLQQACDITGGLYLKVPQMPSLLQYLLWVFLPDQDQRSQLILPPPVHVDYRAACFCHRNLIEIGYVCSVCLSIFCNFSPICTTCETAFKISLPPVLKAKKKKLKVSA
UniProt Q8N442: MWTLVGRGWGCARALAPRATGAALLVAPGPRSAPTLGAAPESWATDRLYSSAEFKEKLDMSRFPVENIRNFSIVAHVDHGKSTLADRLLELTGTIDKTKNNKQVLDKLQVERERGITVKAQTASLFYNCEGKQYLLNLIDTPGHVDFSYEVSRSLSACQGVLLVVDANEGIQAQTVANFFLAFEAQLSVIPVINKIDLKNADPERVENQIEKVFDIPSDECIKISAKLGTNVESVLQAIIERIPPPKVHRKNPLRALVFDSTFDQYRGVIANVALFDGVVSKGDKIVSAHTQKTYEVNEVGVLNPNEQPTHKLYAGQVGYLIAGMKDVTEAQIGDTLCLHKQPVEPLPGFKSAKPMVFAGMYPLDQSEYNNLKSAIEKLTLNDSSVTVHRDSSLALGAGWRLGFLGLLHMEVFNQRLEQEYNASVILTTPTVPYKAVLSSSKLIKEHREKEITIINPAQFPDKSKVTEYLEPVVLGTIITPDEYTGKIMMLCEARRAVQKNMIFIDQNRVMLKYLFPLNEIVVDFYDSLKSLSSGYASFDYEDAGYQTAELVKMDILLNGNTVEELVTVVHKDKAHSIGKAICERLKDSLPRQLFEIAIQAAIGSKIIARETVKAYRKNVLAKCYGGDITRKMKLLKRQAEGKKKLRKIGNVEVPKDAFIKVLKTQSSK
UniProt P35269, whole entry, looked up: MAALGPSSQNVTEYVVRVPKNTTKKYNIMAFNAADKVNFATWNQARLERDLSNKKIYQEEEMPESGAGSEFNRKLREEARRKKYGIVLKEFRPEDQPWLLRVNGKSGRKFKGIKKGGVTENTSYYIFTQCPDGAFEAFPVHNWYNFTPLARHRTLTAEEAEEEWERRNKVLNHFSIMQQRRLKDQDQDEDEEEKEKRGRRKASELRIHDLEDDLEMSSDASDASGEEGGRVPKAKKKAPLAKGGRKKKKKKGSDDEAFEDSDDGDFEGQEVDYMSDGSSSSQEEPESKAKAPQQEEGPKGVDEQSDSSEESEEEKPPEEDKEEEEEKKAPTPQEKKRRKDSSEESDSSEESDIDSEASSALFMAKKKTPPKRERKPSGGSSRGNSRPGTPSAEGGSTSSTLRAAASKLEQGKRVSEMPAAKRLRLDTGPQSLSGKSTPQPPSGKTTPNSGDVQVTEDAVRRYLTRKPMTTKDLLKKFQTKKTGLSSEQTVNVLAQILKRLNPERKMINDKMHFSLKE
UniProt Q9UQL6: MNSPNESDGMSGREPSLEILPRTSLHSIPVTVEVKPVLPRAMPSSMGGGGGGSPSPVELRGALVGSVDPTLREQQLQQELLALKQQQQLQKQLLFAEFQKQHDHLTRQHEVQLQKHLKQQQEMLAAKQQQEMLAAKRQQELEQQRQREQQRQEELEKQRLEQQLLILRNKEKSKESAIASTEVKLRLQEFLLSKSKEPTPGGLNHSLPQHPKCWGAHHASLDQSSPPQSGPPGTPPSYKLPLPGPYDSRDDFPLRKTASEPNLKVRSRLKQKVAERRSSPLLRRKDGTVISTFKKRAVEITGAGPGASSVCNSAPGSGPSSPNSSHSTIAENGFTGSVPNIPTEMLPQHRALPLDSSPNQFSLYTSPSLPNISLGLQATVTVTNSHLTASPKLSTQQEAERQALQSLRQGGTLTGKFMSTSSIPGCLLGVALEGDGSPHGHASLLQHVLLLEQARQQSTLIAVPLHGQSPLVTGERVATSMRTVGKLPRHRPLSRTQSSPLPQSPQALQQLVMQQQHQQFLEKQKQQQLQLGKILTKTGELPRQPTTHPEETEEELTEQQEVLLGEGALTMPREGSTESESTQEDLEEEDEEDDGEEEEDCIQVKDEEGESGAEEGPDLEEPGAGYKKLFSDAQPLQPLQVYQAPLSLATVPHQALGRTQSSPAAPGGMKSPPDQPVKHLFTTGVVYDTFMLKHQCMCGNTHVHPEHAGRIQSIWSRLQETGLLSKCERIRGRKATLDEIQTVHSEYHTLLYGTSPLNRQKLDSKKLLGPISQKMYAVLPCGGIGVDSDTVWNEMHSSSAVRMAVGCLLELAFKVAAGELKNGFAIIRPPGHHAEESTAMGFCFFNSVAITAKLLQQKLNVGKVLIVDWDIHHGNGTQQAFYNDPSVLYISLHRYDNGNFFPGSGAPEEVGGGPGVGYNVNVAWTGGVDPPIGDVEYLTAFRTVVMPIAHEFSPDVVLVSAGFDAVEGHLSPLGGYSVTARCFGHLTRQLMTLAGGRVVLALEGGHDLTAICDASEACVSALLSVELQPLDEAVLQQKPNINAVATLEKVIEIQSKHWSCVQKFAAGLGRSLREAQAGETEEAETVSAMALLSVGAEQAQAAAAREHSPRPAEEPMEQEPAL
UniProt Q9BQ67, whole entry, looked up: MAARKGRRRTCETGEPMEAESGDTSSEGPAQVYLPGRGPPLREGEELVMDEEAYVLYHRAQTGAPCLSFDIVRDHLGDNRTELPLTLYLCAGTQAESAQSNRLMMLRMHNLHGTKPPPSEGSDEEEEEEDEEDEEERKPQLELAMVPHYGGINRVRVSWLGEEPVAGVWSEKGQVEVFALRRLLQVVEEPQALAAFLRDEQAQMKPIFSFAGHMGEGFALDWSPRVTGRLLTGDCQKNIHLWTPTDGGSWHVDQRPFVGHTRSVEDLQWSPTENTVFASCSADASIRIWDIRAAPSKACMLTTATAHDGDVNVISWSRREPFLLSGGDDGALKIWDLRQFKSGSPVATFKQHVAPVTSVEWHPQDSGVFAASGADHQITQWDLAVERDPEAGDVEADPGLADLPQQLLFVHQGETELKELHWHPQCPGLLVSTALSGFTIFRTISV
UniProt P78417: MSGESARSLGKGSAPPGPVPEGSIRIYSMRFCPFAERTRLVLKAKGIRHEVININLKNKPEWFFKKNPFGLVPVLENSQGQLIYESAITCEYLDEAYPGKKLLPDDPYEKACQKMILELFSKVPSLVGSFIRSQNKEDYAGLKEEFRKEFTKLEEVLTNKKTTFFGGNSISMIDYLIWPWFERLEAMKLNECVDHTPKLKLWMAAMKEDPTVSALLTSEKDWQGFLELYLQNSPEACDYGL
UniProt Q9Y5Q8: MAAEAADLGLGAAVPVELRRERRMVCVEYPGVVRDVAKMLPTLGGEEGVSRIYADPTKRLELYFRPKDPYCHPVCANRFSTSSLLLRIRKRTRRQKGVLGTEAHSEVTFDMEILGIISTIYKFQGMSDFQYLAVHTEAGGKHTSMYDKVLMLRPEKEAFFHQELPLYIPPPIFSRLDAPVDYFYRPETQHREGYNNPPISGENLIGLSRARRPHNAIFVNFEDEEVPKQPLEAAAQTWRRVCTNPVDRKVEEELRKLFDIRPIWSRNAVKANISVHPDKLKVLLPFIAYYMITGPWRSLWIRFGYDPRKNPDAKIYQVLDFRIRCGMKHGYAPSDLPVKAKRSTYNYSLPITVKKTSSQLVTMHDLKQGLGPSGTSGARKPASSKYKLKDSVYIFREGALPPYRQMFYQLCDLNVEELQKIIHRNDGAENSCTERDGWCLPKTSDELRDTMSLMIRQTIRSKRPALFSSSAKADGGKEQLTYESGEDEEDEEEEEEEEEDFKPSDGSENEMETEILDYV
UniProt Q9BY41: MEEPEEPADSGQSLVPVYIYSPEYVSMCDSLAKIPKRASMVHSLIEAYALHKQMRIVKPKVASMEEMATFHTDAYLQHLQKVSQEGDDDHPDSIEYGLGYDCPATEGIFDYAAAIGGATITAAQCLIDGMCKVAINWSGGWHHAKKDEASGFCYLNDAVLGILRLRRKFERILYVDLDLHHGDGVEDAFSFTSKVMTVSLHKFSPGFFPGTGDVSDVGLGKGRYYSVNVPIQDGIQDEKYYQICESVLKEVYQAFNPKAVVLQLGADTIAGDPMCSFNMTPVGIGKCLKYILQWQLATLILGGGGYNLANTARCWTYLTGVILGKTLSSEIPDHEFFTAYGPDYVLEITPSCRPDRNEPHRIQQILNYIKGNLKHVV
UniProt O60443: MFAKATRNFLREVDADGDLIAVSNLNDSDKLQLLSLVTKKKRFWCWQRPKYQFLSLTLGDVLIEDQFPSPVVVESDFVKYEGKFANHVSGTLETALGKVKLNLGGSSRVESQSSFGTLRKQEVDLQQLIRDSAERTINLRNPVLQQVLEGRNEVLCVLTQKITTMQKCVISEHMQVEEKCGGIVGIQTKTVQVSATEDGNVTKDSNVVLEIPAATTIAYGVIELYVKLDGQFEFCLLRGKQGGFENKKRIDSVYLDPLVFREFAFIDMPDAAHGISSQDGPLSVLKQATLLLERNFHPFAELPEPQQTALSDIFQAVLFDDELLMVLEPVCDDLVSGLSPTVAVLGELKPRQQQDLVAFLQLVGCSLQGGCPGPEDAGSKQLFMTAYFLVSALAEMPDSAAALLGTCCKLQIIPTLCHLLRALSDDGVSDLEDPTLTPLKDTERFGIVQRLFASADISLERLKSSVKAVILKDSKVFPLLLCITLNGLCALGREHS
UniProt P00390: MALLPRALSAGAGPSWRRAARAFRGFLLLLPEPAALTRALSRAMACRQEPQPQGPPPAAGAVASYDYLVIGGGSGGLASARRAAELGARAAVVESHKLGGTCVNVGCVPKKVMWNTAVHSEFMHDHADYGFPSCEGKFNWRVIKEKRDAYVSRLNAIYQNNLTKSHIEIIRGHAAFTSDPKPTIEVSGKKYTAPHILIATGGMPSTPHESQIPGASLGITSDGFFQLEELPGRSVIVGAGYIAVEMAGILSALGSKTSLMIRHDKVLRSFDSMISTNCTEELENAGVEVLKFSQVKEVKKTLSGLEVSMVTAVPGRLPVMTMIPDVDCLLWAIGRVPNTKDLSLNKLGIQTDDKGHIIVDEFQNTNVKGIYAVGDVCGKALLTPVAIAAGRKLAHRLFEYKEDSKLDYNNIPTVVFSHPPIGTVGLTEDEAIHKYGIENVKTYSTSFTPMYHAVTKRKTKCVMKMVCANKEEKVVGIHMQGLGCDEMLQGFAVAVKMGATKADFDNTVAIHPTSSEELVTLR
UniProt O00178: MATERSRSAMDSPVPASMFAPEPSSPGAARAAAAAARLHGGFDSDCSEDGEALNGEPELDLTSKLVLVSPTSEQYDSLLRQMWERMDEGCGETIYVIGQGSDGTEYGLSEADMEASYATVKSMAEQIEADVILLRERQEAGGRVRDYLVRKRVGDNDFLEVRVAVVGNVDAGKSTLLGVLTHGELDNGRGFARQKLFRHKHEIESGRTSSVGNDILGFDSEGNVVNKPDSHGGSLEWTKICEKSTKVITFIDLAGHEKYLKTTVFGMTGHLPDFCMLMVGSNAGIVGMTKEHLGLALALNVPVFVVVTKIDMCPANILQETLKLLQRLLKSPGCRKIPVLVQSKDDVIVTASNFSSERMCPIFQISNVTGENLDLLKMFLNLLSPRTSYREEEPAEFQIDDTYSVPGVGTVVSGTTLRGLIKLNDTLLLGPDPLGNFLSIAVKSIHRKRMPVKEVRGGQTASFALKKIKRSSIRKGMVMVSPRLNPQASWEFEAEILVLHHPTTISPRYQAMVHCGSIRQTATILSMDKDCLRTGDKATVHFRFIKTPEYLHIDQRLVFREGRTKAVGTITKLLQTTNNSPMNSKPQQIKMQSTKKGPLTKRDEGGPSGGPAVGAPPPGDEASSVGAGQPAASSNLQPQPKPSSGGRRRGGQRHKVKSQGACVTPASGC
UniProt Q92769, whole entry, looked up: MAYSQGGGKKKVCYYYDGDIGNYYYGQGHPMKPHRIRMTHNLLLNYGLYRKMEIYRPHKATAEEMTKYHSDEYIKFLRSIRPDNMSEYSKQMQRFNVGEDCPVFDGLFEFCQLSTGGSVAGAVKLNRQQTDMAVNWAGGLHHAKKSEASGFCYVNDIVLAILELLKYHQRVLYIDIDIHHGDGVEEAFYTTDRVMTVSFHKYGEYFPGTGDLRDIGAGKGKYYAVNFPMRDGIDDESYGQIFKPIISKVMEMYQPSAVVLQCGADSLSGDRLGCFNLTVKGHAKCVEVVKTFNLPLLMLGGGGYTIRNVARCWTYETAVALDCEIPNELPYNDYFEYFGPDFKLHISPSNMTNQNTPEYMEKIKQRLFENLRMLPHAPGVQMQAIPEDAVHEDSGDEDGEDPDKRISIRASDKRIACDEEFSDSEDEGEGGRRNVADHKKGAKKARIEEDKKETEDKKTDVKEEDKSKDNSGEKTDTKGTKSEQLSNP

What was measured:
Test in all cases: log2 fold change, soluble protein after heating vs DMSO (PISA); higher = thermal stabilisation; K562 lysate, 10 uM; active = over 0.2 and 3.5 SD of the protein, either way, in both replicates (recomputed)
lapatinib = compound: CS(=O)(=O)CCNCc1ccc(-c2ccc3ncnc(Nc4ccc(OCc5cccc(F)c5)c(Cl)c4)c3c2)o1 [lapatinib]
In short: (§1)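 Thermal stability, expressed as log-two fold change relative to solvent controls, is given from duplicates. Crude K562 extract in PBS pH 7.4 with 1 mM MgCl2, at 1 mg/mL protein, was treated with 10 μM compound for 30 min and heated in aliquots for 3 min across 48°C-58°C. After pooling, adjustment to 0.5% NP-40 at 4°C and centrifugation at 21,000xg for 90 min, supernatant protein was measured by TMTpro 16plex LC-MS/MS with channel sums equalised.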

pictilisib = compound: CS(=O)(=O)N1CCN(Cc2cc3nc(-c4cccc5[nH]ncc45)nc(N4CCOCC4)c3s2)CC1 [pictilisib]
In short: as §1

crizotinib = compound: C[C@@H](Oc1cc(-c2cnn(C3CCNCC3)c2)cnc1N)c1c(Cl)ccc(F)c1Cl [crizotinib]
In short: as §1

[1] = compound: C[C@H](C1=CC=C(C=C1)C(=O)NC2=C3C=CNC3=NC=C2)N
In short: as §1

duvelisib = compound: C[C@H](Nc1ncnc2nc[nH]c12)c1cc2cccc(Cl)c2c(=O)n1-c1ccccc1 [duvelisib]
In short: as §1

gandotinib = compound: Cc1cc(Nc2cc(CN3CCOCC3)c3nc(C)c(Cc4ccc(Cl)cc4F)n3n2)n[nH]1 [gandotinib]
In short: as §1

tozasertib = compound: Cc1cc(Nc2cc(N3CCN(C)CC3)nc(Sc3ccc(NC(=O)C4CC4)cc3)n2)n[nH]1 [tozasertib]
In short: as §1

doramapimod = compound: Cc1ccc(-n2nc(C(C)(C)C)cc2NC(=O)Nc2ccc(OCCN3CCOCC3)c3ccccc23)cc1 [doramapimod]
In short: as §1

bafetinib = compound: Cc1ccc(NC(=O)c2ccc(CN3CC[C@H](N(C)C)C3)c(C(F)(F)F)c2)cc1Nc1nccc(-c2cncnc2)n1 [bafetinib]
In short: as §1

[2] = compound: Cc1cccc(CC(=O)N2CCc3c2ccc(-c2cn(C)c4ncnc(N)c24)c3F)n1
In short: as §1

nilotinib = compound: Cc1cn(-c2cc(NC(=O)c3ccc(C)c(Nc4nccc(-c5cccnc5)n4)c3)cc(C(F)(F)F)c2)cn1 [nilotinib]
In short: as §1

[3] = compound: Cc1nc(Nc2n[nH]c3c2CN(C(=O)N[C@H](CN(C)C)c2ccccc2)C3(C)C)c2sccc2n1
In short: as §1

dasatinib = compound: Cc1nc(Nc2ncc(C(=O)Nc3c(C)cccc3Cl)s2)cc(N2CCN(CCO)CC2)n1 [dasatinib]
In short: as §1

[4] = compound: Cc1ncc(-c2ccnc(Nc3ccc(S(C)(=O)=O)cc3)n2)n1C(C)C
In short: as §1

[5] = compound: Cn1cc(-c2ccc3c(c2)CCN3C(=O)Cc2cccc(C(F)(F)F)c2)c2c(N)ncnc21
In short: as §1

quisinostat = compound: Cn1cc(CNCC2CCN(c3ncc(C(=O)NO)cn3)CC2)c2ccccc21 [quisinostat]
In short: as §1

tipifarnib = compound: Cn1cncc1[C@@](N)(c1ccc(Cl)cc1)c1ccc2c(c1)c(-c1cccc(Cl)c1)cc(=O)n2C [tipifarnib]
In short: as §1

[6] = compound: NC(=O)Nc1cc(-c2cccc(F)c2)sc1C(=O)N[C@H]1CCCNC1
In short: as §1

[7] = compound: NC(=O)c1cnc(N[C@@H]2CCCC[C@@H]2N)nc1Nc1cccc(-n2nccn2)c1
In short: as §1

[8] = compound: NC1(c2ccc(-c3nc4ccn5c(=O)[nH]nc5c4cc3-c3ccccc3)cc2)CCC1
In short: as §1

Measured: log2 fold change

GTF2H3 (UniProt Q13889)
inactive: lapatinib 0.045 | pictilisib -0.073 | crizotinib -0.072 | [1] -0.068 | duvelisib -0.007 | gandotinib 0.004 | tozasertib -0.025 | doramapimod -0.015 | bafetinib 0.001 | [2] 0.037 | nilotinib 0.012 | [3] 0.002 | dasatinib 0.001 | [4] 0.042 | [5] 0.052 | quisinostat -0.04 | tipifarnib -0.049 | [6] 0.063 | [7] 0.016 | [8] 0.033

GUF1 (UniProt Q8N442)
inactive: lapatinib 0.22 | pictilisib -0.139 | crizotinib 0.018 | [1] -0.067 | duvelisib 0.049 | gandotinib -0.055 | tozasertib 0.04 | doramapimod 0.011 | bafetinib -0.061 | [2] -0.044 | nilotinib 0.06 | [3] 0.088 | dasatinib 0.018 | [4] -0.012 | [5] 0.063 | quisinostat -0.061 | tipifarnib -0.123 | [6] 0.08 | [7] 0.065 | [8] -0.053

GTF2F1 (UniProt P35269)
inactive: lapatinib -0.002 | pictilisib -0.004 | crizotinib 0.01 | [1] -0.12 | duvelisib -0.009 | gandotinib 0.09 | tozasertib -0.012 | doramapimod -0.046 | bafetinib 0.026 | [2] 0.027 | nilotinib 0.013 | [3] -0.032 | dasatinib 0.046 | [4] -0.02 | [5] -0.024 | quisinostat 0.029 | tipifarnib 0.005 | [6] -0.021 | [7] -0.005 | [8] 0.017

HDAC5 isoform 3 (UniProt Q9UQL6)
inactive: lapatinib -0.065 | pictilisib 0.013 | crizotinib -0.046 | [1] -0.062 | duvelisib 0.056 | gandotinib 0.008 | tozasertib 0.025 | doramapimod 0.038 | bafetinib -0.021 | [2] 0.005 | nilotinib -0.058 | [3] -0.008 | dasatinib -0.015 | [4] -0.12 | [5] 0.064 | quisinostat -0.029 | tipifarnib -0.012 | [6] 0.017 | [7] -0.056 | [8] 0.033

GRWD1 (UniProt Q9BQ67)
inactive: lapatinib -0.007 | pictilisib -0.024 | crizotinib -0.026 | [1] -0.022 | duvelisib 0.022 | gandotinib -0.014 | tozasertib -0.016 | doramapimod 0.023 | bafetinib -0.048 | [2] 0.042 | nilotinib -0.018 | [3] 0.051 | dasatinib 0 | [4] -0.012 | [5] 0.052 | quisinostat -0.072 | tipifarnib 0.012 | [6] 0.016 | [7] 0.014 | [8] -0.058

GSTO1 (UniProt P78417)
inactive: lapatinib 0.013 | pictilisib 0.013 | crizotinib 0.094 | [1] 0.098 | duvelisib -0.006 | gandotinib -0.049 | tozasertib 0.022 | doramapimod -0.05 | bafetinib 0.062 | [2] -0.113 | nilotinib 0.014 | [3] 0.006 | dasatinib 0.04 | [4] -0.002 | [5] 0.014 | quisinostat 0.087 | tipifarnib 0.031 | [6] -0.031 | [7] 0.002 | [8] 0.059

GTF3C5 isoform 3 (UniProt Q9Y5Q8)
inactive: lapatinib -0.009 | pictilisib -0.01 | crizotinib -0.047 | [1] -0.014 | duvelisib -0.02 | gandotinib -0.002 | tozasertib -0.012 | doramapimod 0.063 | bafetinib -0.047 | [2] 0.02 | nilotinib 0.023 | [3] -0.023 | dasatinib -0.017 | [4] -0.018 | [5] 0.019 | quisinostat -0.063 | tipifarnib -0.004 | [6] 0.05 | [7] -0.006 | [8] 0.005

HDAC8 (UniProt Q9BY41)
inactive: lapatinib 0.013 | pictilisib 0.018 | crizotinib -0.047 | [1] -0.081 | duvelisib 0.093 | gandotinib 0.005 | tozasertib 0.063 | doramapimod 0.045 | bafetinib -0.017 | [2] 0.152 | nilotinib -0.043 | [3] 0.017 | dasatinib -0.039 | [4] -0.01 | [5] -0.014 | tipifarnib 0.1 | [6] 0.018 | [7] -0.005 | [8] -0.044

GSDME (UniProt O60443)
inactive: lapatinib 0.024 | pictilisib 0.035 | crizotinib 0.004 | [1] 0.007 | duvelisib 0.08 | gandotinib -0.061 | tozasertib -0.146 | doramapimod -0.078 | bafetinib 0.094 | [2] -0.002 | dasatinib -0.014 | [5] -0.111 | quisinostat -0.179 | [6] 0.153 | [7] 0.033 | [8] -0.057

GSR isoform 5 (UniProt P00390)
inactive: lapatinib -0.094 | pictilisib -0.136 | crizotinib -0.143 | [1] -0.564 | duvelisib -0.042 | gandotinib 0.356 | doramapimod 0.017 | bafetinib 0.013 | [2] 0.304 | dasatinib -0.055 | [5] -0.028 | quisinostat -0.29 | [6] 0.062 | [7] -0.018 | [8] -0.448

GTPBP1 (UniProt O00178)
inactive: lapatinib -0.003 | pictilisib -0.015 | crizotinib -0.022 | [1] -0.112 | duvelisib -0.005 | gandotinib 0.021 | tozasertib -0.002 | doramapimod -0.001 | bafetinib -0.024 | [2] 0.001 | nilotinib 0.018 | [3] -0.004 | dasatinib -0.029 | [4] 0.005 | [5] -0.009 | quisinostat 0.059 | tipifarnib -0.008 | [6] -0.011 | [7] 0.012 | [8] -0.018

HDAC2 (UniProt Q92769)
active: quisinostat 0.635
inactive: lapatinib -0.006 | pictilisib 0.002 | crizotinib 0.057 | [1] -0.047 | duvelisib -0.028 | gandotinib 0.018 | tozasertib 0.014 | doramapimod -0.05 | bafetinib -0.021 | [2] 0.028 | nilotinib -0.022 | [3] 0.014 | dasatinib -0.024 | [4] -0.013 | [5] 0.044 | tipifarnib -0.011 | [6] 0.018 | [7] 0.001 | [8] -0.031
